Reference: patent publication US20230000081A1, “SYNERGISTIC PESTICIDAL COMPOSITIONS FOR DELIVERY OF PESTICIDAL ACTIVE INGREDIENTS AND METHODS THEREFOR” (0903608 B.C. Ltd., priority 2018, published 2023)
Several values for one entry are separate records, joined by “and”; a condition that tells them apart may be missing. Identical values can stand only once. The name of at least one read-out is uncertain.

What was measured:
Botrytis cinerea = experiment: Synergistic Growth Inhibition Assay (MIC, FIC index; 96-well microtiter plate, resazurin dye); format: cell-based; details: Compound B alone, incubation period of 2 days
Description: (§1) In some embodiments, the synergistic action between the pesticidal active ingredient, and the at least one C4-C10 (or alternatively C11 or C12) saturated or unsaturated aliphatic acid components of the pesticidal compositions according to embodiments of the present disclosure was tested using a Synergistic Growth Inhibition Assay, which is derived from and related to a checkerboard assay as is known in the art for testing of combinations of antimicrobial agents. […] Thus, each well of the microtiter plate is a unique combination of the two agents, at which inhibitory efficacy of the combination against the target pest or pathogen can be determined.
(§2) In one embodiment according to the present disclosure, for each row of microtiter cells in the Synergistic Growth Inhibition Assay, the FIC index is calculated from the lowest concentration of the pesticidal active ingredient and one or more C4-C10 saturated or unsaturated aliphatic acid agents necessary to inhibit growth of a target pest or pathogen. […] The FIC index is calculated for each row as follows: […]

Sclerotinia sclerotiorum = experiment: as above; format: cell-based; details: Compound A alone, incubation period of 7 days
Description: as §1, §2

## O=C(O)CCCCCCCCCCCO [12-Hydroxydodecanoic acid]
Botrytis cinerea
  MIC (B): 100 µg/mL

## N#Cc1c[nH]cc1-c1cccc2c1OC(F)(F)O2 [Fludioxonil, fludioxonil]
Sclerotinia sclerotiorum
  MIC (A): 0.3281 µg/mL and 0.32813 µg/mL
